# Laboratory results: patent US20260138948A1, “N-SUBSTITUTED INDOLES AS 5-HYDROXYTRYPTAMINE (5-HT) SEROTONIN RECEPTOR AGONISTS AND ANTAGONISTS” (Terran Biosciences Inc., priority 2021, published 2026)
# Some entries share one result that the patent states for a list of compounds.
# Target: T1, 5-HT2C receptor (Homo sapiens, UniProt P28335)
# T1 construct: host or cells: unnamed cell lines
# T1 sequence (P28335 33-458): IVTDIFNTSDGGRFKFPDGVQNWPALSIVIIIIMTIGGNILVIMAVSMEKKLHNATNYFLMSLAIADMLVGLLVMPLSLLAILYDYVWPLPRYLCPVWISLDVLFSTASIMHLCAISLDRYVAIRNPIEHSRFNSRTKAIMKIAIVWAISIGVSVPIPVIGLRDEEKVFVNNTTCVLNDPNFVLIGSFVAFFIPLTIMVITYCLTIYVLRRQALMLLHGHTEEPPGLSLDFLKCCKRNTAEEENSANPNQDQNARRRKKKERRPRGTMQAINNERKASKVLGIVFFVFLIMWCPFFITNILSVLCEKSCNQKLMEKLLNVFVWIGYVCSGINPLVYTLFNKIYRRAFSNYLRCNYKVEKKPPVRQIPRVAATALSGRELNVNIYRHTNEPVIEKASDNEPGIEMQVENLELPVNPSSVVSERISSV
# Test: Calcium mobilization assay, antagonist format, 5-HT2C
# Type: cell-based
# Conditions: text statement; 10 μM (ten micromolar)
# Protocol: Protocol—in vitro testing at select 5-hydroxytryptamine (5-HT; serotonin) receptors was conducted.
# • 1. Cell lines were expanded from freezer stocks according to standard procedures. • 2. Cells were seeded in a total volume of 20 μL into black-walled, clear-bottom, Poly-D-lysine coated 384-well microplates and incubated at 37° C. for the appropriate time prior to testing.
# • 1. Assays were performed in 1× Dye Loading Buffer consisting of 1× Dye, 1× Additive A and • 2.5 mM Probenecid in HBSS/20 mM Hepes. Probenicid was prepared fresh. • 2. Cells were loaded with dye prior to testing. Media was aspirated from cells and replaced with 20 μL Dye Loading Buffer. • 3. Cells were incubated for 30-60 minutes at 37° C.
# • 1. For antagonist determination, cells were pre-incubated with sample followed by agonist challenge at the EC80 concentration. • 2. Intermediate dilution of sample stocks was performed to generate 3× sample in assay buffer. • 3. After dye loading, cells were removed from the incubator and 10 μL 3× sample was added. […] Compound antagonist activity was measured on a FLIPR Tetra (MDS). Calcium mobilization was monitored for 2 minutes and 10 μL EC80 agonist in HBSS/20 mM Hepes was added to the cells 5 seconds into the assay.
# • 1. Compound activity was analyzed using CBIS data analysis suite (ChemInnovation, CA). • 2. For agonist mode assays, percentage activity is calculated using the following formula: % Activity=100%×(mean RFU of test sample−mean RFU of vehicle control)/(mean MAX RFU control ligand −mean RFU of vehicle control). • 3. For positive allosteric mode assays, percentage modulation was calculated using the following formula: % Modulation=100%×((mean RFU of test sample−mean RFU of EC20 control)/(mean RFU of MAX control ligand −mean RFU of EC20 control)). • 4. For antagonist and negative allosteric modulation mode assays, percentage inhibition is calculated using the following formula: % Inhibition=100%×(1−(mean RFU of test sample−mean RFU of vehicle control)/(mean RFU of EC80 control−mean RFU of vehicle control)). […]
row,Structure (SMILES),antagonism of the 5-HT2C receptor
1,"CC(Cc1ncn2cc(F)ccc12)N(C)C (racemic) [Compound 93, (R/S)-1-(6-fluoroimidazo[1,5-a]pyridin-1-yl)-N,N-dimethylpropan-2-amine]",greater than 75%
2,"C[C@H](Cn1ccc2cc(S(F)(F)(F)(F)F)ccc21)N(C)C [Compound 2, (2R)-N,N-dimethyl-1-[5-(pentafluoro-λ^6-sulfanyl)indol-l-yl]propan-2-amine]",greater than 75%
3,"C[C@H](Cn1ccc2c3c(ccc21)OCCC3)N(C)C [Compound 3, (R)-1-(8,9-dihydropyrano[3,2-e]indol-3(7H)-yl)-N,N-dimethylpropan-2-amine]",greater than 75%
